Assay: peptide synthesis
Conditions: conjugation step

| Substance | conjugation yield [%] |
| --- | --- |
| Arylazide-PEG11-LPETGG | 59 |
| BCN-PEG12-LPETGG | 63 |
